Source: PubChem BioAssay AID2685 (National Center for Advancing Translational Sciences (NCATS), 2010)
This is one part of the list. The main result of the screen is listed elsewhere. These columns were measured beside it and carry no call. The list favours compounds with an active or inconclusive main result. The note in brackets gives the kind of curve behind each potency; many fits are weak.

Experiment: qHTS Assay for Lipid Storage Modulators in Drosophila S3 Cells;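 as to cell number change: cells counted by Cell Tracker Red CMTPX staining in the red channel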
Details: BODIPY lipid droplet fluorescence, 18-24 h; for cell number change: measured here: cell count max response, cells fed with added oleic acid
In short: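 Drosophila S3 cells got compounds at several concentrations plus oleic acid (400 uM solution). Laser-scanning cytometry with 488 nm excitation read lipid droplets at 500-530 nm and cells at 575-640 nm. Percent activity was relative to 20 uM Triacsin C.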

[1] = measured here: cell number channel AC50, cells fed with added oleic acid
[2] = measured here: lipid fluorescence (Fed channel) AC50, cells fed with added oleic acid

SMILES | cell number change | AC50 [1] | AC50 [2]
COc1ccc(-n2cnc3ccccc32)cc1 | 55.9% | 10.3 µM [rising, partial curve] | 
CCCCNC(=O)C1CCCN1C(=O)Nc1cccc(OC)c1 (stereo not drawn) | -7.05% |  | 3.26 µM [rising, full curve]
Cc1c2c(=O)n(-c3nc4ccccc4s3)nc-2cc(O)n1Cc1ccccc1 | -22.6% |  | 
CC1(C)C(=O)Nc2ccccc2N1C(=O)COC(=O)COc1cccc(C(F)(F)F)c1 | -5.95% |  | 20.6 µM [falling, partial curve]
Cc1ccc(C)c(-n2c(CNC(=O)c3ccco3)nnc2SCC(=O)Nc2nnc(C)s2)c1 | 2.73% |  | 
COc1ccc(NC2=CC(c3cccc(OC)c3)N(c3ccc(OC)cc3)C2=O)cc1 (stereo not drawn) | -1.81% |  | 
Cc1cccc(Nc2nc3c(S(=O)(=O)c4ccccc4)nnn3c3ccccc23)c1C | 4.23% |  | 0.366 µM [rising, partial curve, poor fit]
CCCCCC(=O)Nc1cc(S(=O)(=O)N2CCOCC2)ccc1N1CCCCC1 | -8.32% |  | 6.51 µM [rising, single point]
COCCOC(=O)/C(=C\c1cc(C(C)(C)C)c(O)c(C(C)(C)C)c1)C(C)=O | -3.92% |  | 0.651 µM [rising, single point]
CCOc1ccc2nc(C)cc(Nc3cccc([N+](=O)[O-])c3)c2c1 | -17.7% |  | 
COc1cc(C)c(C(C)C)cc1S(=O)(=O)N1CCOCC1 | 5.08% |  | 
O=C(Nc1ccc2nc3n(c(=O)c2c1)CCCCC3)c1c(F)ccc([N+](=O)[O-])c1F | -62.9% | 18.4 µM [falling, partial curve] | 1.64 µM [falling, full curve]
COc1ccc(S(=O)(=O)Nc2ccc(O)c3ccccc23)cc1 | -155% | 29.1 µM [falling, single point] | 29.1 µM [falling, single point]
O=C(COc1ccc(F)cc1Cl)NC1CCCCCC1 | -38.3% | 13 µM [falling, partial curve] | 
CC(=O)NCCCc1nc2ccccc2n1Cc1ccccc1C | 32.2% | 7.31 µM [rising, partial curve, poor fit] | 10.3 µM [rising, partial curve]
COCCCNC(=O)Cn1c(=O)n(Cc2ccc(F)cc2)c(=O)c2sccc21 | 24.9% |  | 
O=C(CSc1nnc(COc2ccccc2)o1)N1CCCC1 | -25.6% |  | 
Cc1cc(C)c2c(c1)cc(C)c1nnc(SCC(=O)Nc3cc(C)on3)n12 | -18.3% |  | 
COC(=O)C(Cc1c[nH]c2ccccc12)NC(=O)c1cccs1 (stereo not drawn) | -25.8% |  | 25.9 µM [falling, single point]

Single entries from the entries so far:
CC1(C)C(=O)Nc2ccccc2N1C(=O)COC(=O)COc1cccc(C(F)(F)F)c1 – AC50 [2]: 20.6 µM [falling, partial curve]
Cc1ccc(C)c(-n2c(CNC(=O)c3ccco3)nnc2SCC(=O)Nc2nnc(C)s2)c1 – cell number change: 2.73%
